Results: paper doi:10.1101/2024.11.12.621593
These are yes or no findings as the source states them, for the method shown. In cells and extracts the contact can be indirect. Some binding calls cover weakened binding; strength is not graded here.

Chains of the proteins cited; added tags and fusions are not shown.
UniProt Q92547: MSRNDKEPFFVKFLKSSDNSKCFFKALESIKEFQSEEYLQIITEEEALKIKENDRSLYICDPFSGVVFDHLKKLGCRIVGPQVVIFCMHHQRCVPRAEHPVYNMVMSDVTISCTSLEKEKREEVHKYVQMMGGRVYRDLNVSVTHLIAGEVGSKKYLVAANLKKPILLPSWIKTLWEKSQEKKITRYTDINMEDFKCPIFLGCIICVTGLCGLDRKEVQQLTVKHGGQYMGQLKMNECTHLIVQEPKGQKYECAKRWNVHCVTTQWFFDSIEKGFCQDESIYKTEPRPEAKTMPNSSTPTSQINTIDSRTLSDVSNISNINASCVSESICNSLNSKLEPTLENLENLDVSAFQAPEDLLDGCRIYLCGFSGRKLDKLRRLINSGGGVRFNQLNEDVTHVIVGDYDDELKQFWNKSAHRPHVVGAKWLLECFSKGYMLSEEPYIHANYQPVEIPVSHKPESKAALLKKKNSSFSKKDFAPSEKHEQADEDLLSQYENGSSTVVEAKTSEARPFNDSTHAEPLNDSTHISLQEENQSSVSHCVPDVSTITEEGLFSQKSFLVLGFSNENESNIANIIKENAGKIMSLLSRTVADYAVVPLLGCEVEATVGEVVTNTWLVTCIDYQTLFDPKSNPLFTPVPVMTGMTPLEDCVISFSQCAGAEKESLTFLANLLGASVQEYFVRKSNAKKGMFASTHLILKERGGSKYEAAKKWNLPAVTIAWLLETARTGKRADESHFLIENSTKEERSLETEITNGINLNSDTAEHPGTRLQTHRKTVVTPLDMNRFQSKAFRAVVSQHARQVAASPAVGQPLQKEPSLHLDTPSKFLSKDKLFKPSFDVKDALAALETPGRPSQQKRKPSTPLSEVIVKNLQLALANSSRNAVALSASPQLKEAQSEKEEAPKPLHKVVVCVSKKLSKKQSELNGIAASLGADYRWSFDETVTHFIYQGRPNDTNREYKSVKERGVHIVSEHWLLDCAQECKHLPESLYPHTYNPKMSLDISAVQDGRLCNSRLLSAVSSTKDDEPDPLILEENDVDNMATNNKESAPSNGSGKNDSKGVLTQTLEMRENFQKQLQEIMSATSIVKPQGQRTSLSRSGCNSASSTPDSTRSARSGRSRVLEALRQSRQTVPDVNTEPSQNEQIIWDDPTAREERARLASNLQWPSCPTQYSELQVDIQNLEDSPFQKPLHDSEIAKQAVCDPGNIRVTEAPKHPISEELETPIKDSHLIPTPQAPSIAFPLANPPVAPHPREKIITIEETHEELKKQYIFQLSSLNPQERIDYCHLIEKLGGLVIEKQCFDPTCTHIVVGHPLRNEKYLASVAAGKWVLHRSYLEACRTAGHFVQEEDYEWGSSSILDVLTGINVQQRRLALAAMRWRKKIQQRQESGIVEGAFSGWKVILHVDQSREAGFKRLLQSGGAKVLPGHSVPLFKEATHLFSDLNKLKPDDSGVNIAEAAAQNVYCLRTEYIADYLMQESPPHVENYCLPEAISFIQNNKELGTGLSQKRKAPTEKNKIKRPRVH
UniProt P54132: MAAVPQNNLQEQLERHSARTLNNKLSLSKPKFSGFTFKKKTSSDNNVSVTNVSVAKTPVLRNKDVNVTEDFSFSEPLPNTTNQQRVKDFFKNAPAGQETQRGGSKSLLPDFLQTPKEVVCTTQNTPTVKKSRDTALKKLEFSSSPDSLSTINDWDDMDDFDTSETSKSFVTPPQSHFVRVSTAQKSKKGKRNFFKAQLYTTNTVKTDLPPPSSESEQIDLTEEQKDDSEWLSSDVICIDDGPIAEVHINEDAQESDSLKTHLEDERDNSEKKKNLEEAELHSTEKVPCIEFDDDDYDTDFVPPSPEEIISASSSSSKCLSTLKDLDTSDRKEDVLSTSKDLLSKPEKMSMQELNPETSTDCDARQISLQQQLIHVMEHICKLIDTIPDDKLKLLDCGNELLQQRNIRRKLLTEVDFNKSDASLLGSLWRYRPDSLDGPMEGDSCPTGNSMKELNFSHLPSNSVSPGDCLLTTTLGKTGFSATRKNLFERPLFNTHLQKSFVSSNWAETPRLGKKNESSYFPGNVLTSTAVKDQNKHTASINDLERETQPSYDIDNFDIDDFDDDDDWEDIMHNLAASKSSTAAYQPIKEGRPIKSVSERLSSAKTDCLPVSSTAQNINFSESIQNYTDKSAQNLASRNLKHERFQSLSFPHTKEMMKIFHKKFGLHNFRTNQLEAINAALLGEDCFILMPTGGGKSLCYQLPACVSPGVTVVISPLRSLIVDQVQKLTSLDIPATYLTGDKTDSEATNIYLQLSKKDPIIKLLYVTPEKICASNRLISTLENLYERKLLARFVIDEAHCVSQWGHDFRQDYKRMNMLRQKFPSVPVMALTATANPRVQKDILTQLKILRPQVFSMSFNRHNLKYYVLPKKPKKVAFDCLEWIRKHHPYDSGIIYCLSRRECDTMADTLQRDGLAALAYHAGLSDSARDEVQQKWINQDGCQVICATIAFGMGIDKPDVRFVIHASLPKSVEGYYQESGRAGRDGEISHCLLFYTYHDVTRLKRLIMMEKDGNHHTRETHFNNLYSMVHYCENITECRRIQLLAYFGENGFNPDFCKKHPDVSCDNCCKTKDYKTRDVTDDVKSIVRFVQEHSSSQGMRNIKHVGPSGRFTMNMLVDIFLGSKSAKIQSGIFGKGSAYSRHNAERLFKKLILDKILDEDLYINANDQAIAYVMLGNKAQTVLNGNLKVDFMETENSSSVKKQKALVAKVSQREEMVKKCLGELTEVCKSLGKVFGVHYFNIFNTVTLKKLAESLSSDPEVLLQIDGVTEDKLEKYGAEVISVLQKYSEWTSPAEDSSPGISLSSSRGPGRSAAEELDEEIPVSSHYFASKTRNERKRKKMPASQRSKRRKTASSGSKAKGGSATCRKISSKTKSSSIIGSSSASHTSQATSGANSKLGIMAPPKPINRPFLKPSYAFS
UniProt Q8IY92: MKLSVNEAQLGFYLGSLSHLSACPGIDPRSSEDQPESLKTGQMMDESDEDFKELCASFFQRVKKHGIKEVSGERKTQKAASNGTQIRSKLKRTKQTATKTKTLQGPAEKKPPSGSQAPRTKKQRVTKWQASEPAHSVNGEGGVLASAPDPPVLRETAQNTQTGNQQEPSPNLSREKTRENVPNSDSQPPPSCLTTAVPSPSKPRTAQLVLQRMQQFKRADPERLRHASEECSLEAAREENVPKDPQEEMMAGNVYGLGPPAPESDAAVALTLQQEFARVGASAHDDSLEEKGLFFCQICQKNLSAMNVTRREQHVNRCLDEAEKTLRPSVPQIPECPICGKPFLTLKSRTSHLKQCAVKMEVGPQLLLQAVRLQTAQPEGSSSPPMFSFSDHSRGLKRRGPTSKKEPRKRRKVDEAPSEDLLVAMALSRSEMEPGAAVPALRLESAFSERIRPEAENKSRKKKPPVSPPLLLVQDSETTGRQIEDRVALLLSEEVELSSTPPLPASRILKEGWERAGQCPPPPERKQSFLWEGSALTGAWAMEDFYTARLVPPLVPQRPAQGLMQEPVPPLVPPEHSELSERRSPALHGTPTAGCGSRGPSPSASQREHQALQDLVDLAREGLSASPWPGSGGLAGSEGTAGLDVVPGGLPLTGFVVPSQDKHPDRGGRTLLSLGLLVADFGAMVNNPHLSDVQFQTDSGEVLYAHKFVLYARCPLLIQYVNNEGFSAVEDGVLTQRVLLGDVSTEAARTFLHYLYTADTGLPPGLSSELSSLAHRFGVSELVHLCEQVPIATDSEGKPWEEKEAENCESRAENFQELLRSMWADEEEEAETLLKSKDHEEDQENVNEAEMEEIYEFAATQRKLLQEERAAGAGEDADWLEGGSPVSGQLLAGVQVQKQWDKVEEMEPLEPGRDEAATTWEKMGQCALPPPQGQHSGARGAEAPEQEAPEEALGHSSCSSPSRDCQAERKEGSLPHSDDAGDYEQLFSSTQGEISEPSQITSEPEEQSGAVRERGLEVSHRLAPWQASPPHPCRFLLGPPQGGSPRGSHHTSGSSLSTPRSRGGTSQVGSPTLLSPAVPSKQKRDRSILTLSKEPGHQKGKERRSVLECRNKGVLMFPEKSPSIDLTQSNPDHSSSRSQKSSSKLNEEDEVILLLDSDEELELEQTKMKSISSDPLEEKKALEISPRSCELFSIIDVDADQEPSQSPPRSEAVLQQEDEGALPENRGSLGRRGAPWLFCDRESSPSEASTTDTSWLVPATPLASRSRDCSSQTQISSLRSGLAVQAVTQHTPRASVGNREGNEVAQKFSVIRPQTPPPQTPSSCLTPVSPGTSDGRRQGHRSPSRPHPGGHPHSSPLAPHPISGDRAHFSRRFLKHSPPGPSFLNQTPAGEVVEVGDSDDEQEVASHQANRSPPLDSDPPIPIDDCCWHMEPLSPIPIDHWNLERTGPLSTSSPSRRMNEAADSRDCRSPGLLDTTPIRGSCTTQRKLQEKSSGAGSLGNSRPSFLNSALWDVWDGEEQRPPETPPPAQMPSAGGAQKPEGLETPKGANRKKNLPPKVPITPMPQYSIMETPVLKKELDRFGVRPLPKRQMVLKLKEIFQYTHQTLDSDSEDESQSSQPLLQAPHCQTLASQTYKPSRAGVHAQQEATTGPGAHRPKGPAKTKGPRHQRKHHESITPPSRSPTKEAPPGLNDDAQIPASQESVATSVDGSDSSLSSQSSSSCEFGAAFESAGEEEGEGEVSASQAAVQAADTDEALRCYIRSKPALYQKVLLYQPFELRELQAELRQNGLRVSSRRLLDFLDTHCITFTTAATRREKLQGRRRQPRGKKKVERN

Target: eGFP-TOPBP1 WT (human) (UniProt Q92547)
Test: co-IP

Row | Substance | binding
1 | BLM (endogenous) (from UniProt P54132 1-1417) | binds
2 | SLX4 (endogenous) (from UniProt Q8IY92 1-1834) | binds
